According to patent publication US20240240155A1, “Organoid-Derived Monolayers and Uses Thereof” (Hub Organoids IP B.V., priority 2021, published 2024):

Tests used:
Type in all cases: cell-based
Conditions in all cases: Homo sapiens
[1] = tested on: normal colon-derived epithelium monolayers; assay: Cytokine-induced barrier injury with tofacitinib pre-treatment, Lucifer Yellow permeability assay
[2] = tested on: normal colon-derived epithelium monolayers; assay: Cytokine-induced barrier injury with tofacitinib pre-treatment, TEER
Procedure: (A) Transepithelial electrical resistance (TEER). (B) relative TEER value from the same Transwell before treatment after 5 and 24 hours. (C) Permeability and (D) Cell viability of the same Transwell after 24 hours in response to treatments. […] (E) TEER (top), permeability (middle) and cell viability (bottom) dose response curves. EC50 values were calculated by Non-linear regression log(inhibitor) versus response variable slope (four parameters) of three technical replicates.
(A) Transepithelial electrical resistance (TEER). (B) Relative TEER values from the same Transwell before treatment after 5 and 24 hours. (C) Permeability and (D) Cell viability of the same Transwell after 24 hours in response to treatments. […] An unpaired t-test was performed on permeability and cell viability data. A one-way ANOVA (Dunett's multiple comparisons test) was done on normalized TEER, permeability and cell viability data. *P<0.05, **P<0.01, ***P<0.001.
At this point, the culture medium was changed to cCDM until epithelium monolayer barrier integrity further increased (TEER >1000 Ω·cm^2). […] These measurements were normalized to the TEER value of the same Transwell before measurement, to correct for well-to-well TEER variability (FIG. 7B). Paracellular permeability was measured by the Lucifer Yellow (LY) permeability assay after 24 hours (FIG. 7C). Subsequently, monolayer cell viability was measured by the ATP Luminescent Assay, CellTiter-Glo 3D, to monitor for loss of barrier function due to cell death, as opposed to increased paracellular permeability. […] (FIG. 7D).

[3] = tested on: normal colon-derived epithelium monolayers; assay: cells

For C[C@@H]1CCN(C(=O)CC#N)C[C@@H]1N(C)c1ncnc2[nH]ccc12 [tofacitinib], the EC50 ([1]; read-out: Permeability (EC50 of tofacitinib dose response, FIG. 7E), IFN-γ/TNF-α 2 ng/mL) was 2000 nM, the EC50 ([1]; read-out: Permeability (EC50 of tofacitinib dose response, FIG. 7E), IFN-γ/TNF-α/IL-1α 2 ng/mL) was ~1070 nM and the EC50 ([2]; read-out: TEER (EC50 of tofacitinib dose response, FIG. 7E), IFN-γ/TNF-α 1 ng/mL) was ~1250 nM. The EC50 ([2]; read-out: TEER (EC50 of tofacitinib dose response, FIG. 7E), IFN-γ/TNF-α/IL-1α 1 ng/mL) was 1960 nM, the EC50 ([2]; read-out: TEER (EC50 of tofacitinib dose response, FIG. 7E), IFN-γ/TNF-α/IL-1α 2 ng/mL) was 6380 nM and the EC50 ([2]; read-out: around EC50 tofacitinib concentration, FIG. 7E and Table 6) was ~2000 nM. The EC50 ([3]; read-out: Cell Viability (EC50 of tofacitinib dose response, FIG. 7E), IFN-γ/TNF-α 2 ng/mL) was ~2820 nM, the EC50 ([3]; read-out: Cell Viability (EC50 of tofacitinib dose response, FIG. 7E), IFN-γ/TNF-α/IL-1α 1 ng/mL) was ~1040 nM and the EC50 ([3]; read-out: Cell Viability (EC50 of tofacitinib dose response, FIG. 7E), IFN-γ/TNF-α/IL-1α 2 ng/mL) was ~2840 nM.
